Results reported in paper PMC11091243 (Frontiers in Immunology, 2024).
The same purity stands for every peptide and may come from a single statement.

Test: peptide made by a vendor (Fmoc solid-phase peptide synthesis)
Details: whole synthesis

| Substance | final purity (method not given) [%] |
| --- | --- |
| SHTSWILYGETGWGGGSK-FITC-NH2 | >98 |
| SHESWLPAYVLGSGGGSK-NH2 | >98 |
| SHESWLPAYVLGSGGGSK-FITC-NH2 | >98 |
| SHTSWILYGETGWGGGSK-NH2 | >98 |
| SVSVSHFQKVWVVGGGSK(PEG8)-NH2 | >98 |
| SMQYADHPVNTGGGGSK-FITC-NH2 | >98 |
| SVSVSHFQKVWVVGGGSK-FITC-NH2 | >98 |
| SVSVSHFQKVWVVGGGSK-NH2 | >98 |
| SMQYADHPVNTGGGGSK(PEG8)-NH2 | >98 |
| SMQYADHPVNTGGGGSK-NH2 | >98 |
